The record followed here is the supplement of paper PMC12009310.

The subject of test [1] is mIMCD3. The test is described as follows: robust z score of cell number vs plate controls; higher = more cells (less cytotoxic). As to conditions: 10 µM, 48 h.
The test system of test [2] is mIMCD3. As to the kind of experiment: robust z score of cilia incidence (% cells with single cilium) vs plate controls; higher = more ciliated cells. The conditions noted are these: 10 µM; 48 h; siRNA: siScr.
Test [3] has as its system mIMCD3. The test is described as follows: robust z score of cilia incidence (% cells with single cilium) vs plate controls; higher = more ciliated cells (rescue of cilia loss). The conditions noted are these: 10 µM; 48 h; siRNA: siRpgrip1l.

Where a name gives a salt, the structure may show the parent alone. ± gives the standard deviation of the averaged measurements. Some of the results follow. Part of the spread comes from offsets between plates or batches.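 The cells are a mouse kidney inner medullary collecting duct line, silenced either for the ciliary gene Rpgrip1l or with a non-targeting control siRNA.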

For `CCCn1c(=O)c2[nH]c(-c3ccccc3)nc2n(CCC)c1=O` [1,3-Dipropyl-8-phenylxanthine], the “robust z score of cell number” value was -30.6 ± 31 with mIMCD3 [1] (siRNA: siRpgrip1l) and -19.7 ± 8.8 in the test on mIMCD3 [1] (siRNA: siScr). Further, the “robust z score of cilia incidence” value in the test on mIMCD3 [2] is -2.45 ± 3.2; with mIMCD3 [3] it was -9.17 ± 5.3.
For `Cc1c(NC(=O)N2CCOCC2)ccc2c1c1ccccc1n2C(C)C` the same measures were -14.9 ± 16, -1.5 ± 5.1, 1.47 ± 1.8 and -3.31 ± 0.2.
`NC(=O)c1cccc(N)c1` [3-Aminobenzamide]: the “robust z score of cell number” value in the test on mIMCD3 [1] (siRNA: siRpgrip1l) is -0.671 ± 0.64; in the test with mIMCD3 [1] (siRNA: siScr) it was -0.248 ± 3.1. Further, the “robust z score of cilia incidence” value with mIMCD3 [2] is 1.17 ± 0.64; in the test on mIMCD3 [3], -5.84 ± 0.93.
For the molecule `COc1ccccc1N1CCN(CCCCN2C(=O)c3ccccc3C2=O)CC1` [NAN-190 hydrobromide], the “robust z score of cell number” value in the test with mIMCD3 [1] (siRNA: siRpgrip1l) is -8.03 ± 5.4; in the test on mIMCD3 [1] (siRNA: siScr), -5.42 ± 9.1. Also, the “robust z score of cilia incidence” value in the test with mIMCD3 [2] is -0.102 ± 1.2; in the test on mIMCD3 [3], -8.62 ± 2.2.
For `CN1CCN2c3ncccc3Cc3ccccc3C2C1` (configuration not stated) [Mirtazepine] the same measures were 7.31 ± 11, 0.754 ± 6.3, -5.6 ± 2.8 and -20 ± 9.4.
Take `CN=c1nc(-c2ccccc2)n(-c2ccccc2)s1`: the “robust z score of cell number” value with mIMCD3 [1] (siRNA: siRpgrip1l) is -138 ± 100; in the test on mIMCD3 [1] (siRNA: siScr), -17.1 ± 2.3. Moreover, the “robust z score of cilia incidence” value in the test with mIMCD3 [2] was -6.64 ± 2.9; in the test on mIMCD3 [3], -19.5 ± 5.2.
`FC(F)(F)c1cccc(-c2noc(-c3cc(-c4ccccc4)c(C(F)(F)F)s3)n2)c1`: the figures for the “robust z score of cell number” value with mIMCD3 [1] (siRNA: siRpgrip1l) and with mIMCD3 [1] (siRNA: siScr) were -6.75 ± 1.5 and -4.53 ± 0.43, respectively. Also, the “robust z score of cilia incidence” value was -1.54 ± 4.8 with mIMCD3 [2] and -11.6 ± 7 with mIMCD3 [3].
On to `CCCC(=O)Nc1ncnc2c1ncn2[C@@H]1O[C@@H]2COP(=O)(O)O[C@H]2[C@H]1OC(=O)CCC` [Dibutyryl-cAMP, sodium salt], for which the “robust z score of cell number” value in the test on mIMCD3 [1] (siRNA: siRpgrip1l) is -7.09 ± 5; in the test on mIMCD3 [1] (siRNA: siScr) it was -1.23 ± 0.89. Further, the “robust z score of cilia incidence” value in the test with mIMCD3 [2] was 1.18 ± 1.1; in the test on mIMCD3 [3], -13.9 ± 0.92.
On the same counts, the results for `CCOCC(O)COc1ccc(NC(=O)CC[S+](C)C)cc1` (configuration not stated) [Suplatast tosylate] are -5.82 ± 4.7, 0.0141 ± 2.3, -1.83 ± 2.8 and -9.17 ± 3.6.
On the same counts, the results for `Cc1ccc(S(=O)(=O)/C=C/C#N)cc1` are -52.6 ± 51, -28 ± 22, -13.2 ± 8 and -19.5 ± 12.
On the same counts, the results for `COc1cc(N)c(Cl)cc1C(=O)NC1CCN(CCCOc2ccc(F)cc2)CC1OC` (configuration not stated) [Cisapride] are -12.3 ± 7, -14.8 ± 6.7, -69.2 ± 65 and -68.8 ± 47.
On to `Cc1nc2sccn2c(=O)c1CCN1CCC(=C(c2ccc(F)cc2)c2ccc(F)cc2)CC1` [Ritanserin], for which the results for the “robust z score of cell number” value in the test on mIMCD3 [1] (siRNA: siRpgrip1l) and in the test on mIMCD3 [1] (siRNA: siScr) were -45.1 ± 41 and -44.8 ± 29, respectively. For the same molecule, the entries for the “robust z score of cilia incidence” value in the test on mIMCD3 [2] and in the test on mIMCD3 [3] were -124 ± 75 and -95.6 ± 85, respectively.
For `CN1C(=O)C(Cc2c[nH]c3ccccc23)NC1=S` (configuration not stated) [Necrostatin-1] the same measures were -4.14 ± 4.4, 6.19 ± 2.4, 0.909 ± 2.7 and -7.63 ± 2.3.
On the same counts, the results for `CN(C)CCCC1(c2ccc(F)cc2)OCc2cc(C#N)ccc21` (configuration not stated) [Citalopram hydrobromide] are -42.6 ± 58, -2.74 ± 6.2, 0.929 ± 0.87 and -5.8 ± 5.
On the same counts, the results for `CCN(CC)c1ccc(/C=N/NC(=O)c2ccc(O)cc2)cc1` are -24.4 ± 11, -20.7 ± 1.4, -35.3 ± 30 and -30.9 ± 17.
As for `O=C1c2ccccc2C(Cc2ccnc(F)c2)(Cc2ccnc(F)c2)c2ccccc21`, the “robust z score of cell number” value in the test with mIMCD3 [1] (siRNA: siRpgrip1l) was -6.93 ± 1.6; with mIMCD3 [1] (siRNA: siScr), -1.77 ± 2.3. Moreover, the entries for the “robust z score of cilia incidence” value in the test with mIMCD3 [2] and in the test on mIMCD3 [3] were -1.06 ± 2.3 and -15.9 ± 11, respectively.
As to `CNS(=O)(=O)Cc1ccc2[nH]cc(CCN(C)C)c2c1` [Sumatriptan succinate], the “robust z score of cell number” value in the test on mIMCD3 [1] (siRNA: siRpgrip1l) is -4.36 ± 2.9; with mIMCD3 [1] (siRNA: siScr), -0.573 ± 3.4. Moreover, the “robust z score of cilia incidence” value is -0.313 ± 1.1 in the test with mIMCD3 [2] and -4.62 ± 0.18 in the test on mIMCD3 [3].
On the same counts, the results for `Cc1ccc2c(c1)C(=O)C1(O)CCN(c3ccccc3)C1=N2` (racemic) [(±)-Blebbistatin] are -5.85 ± 6.5, -1.86 ± 1.8, 12.4 ± 7.8 and -8.69 ± 5.6.
`CCCCCCCCCCC[C@@H](C[C@@H]1OC(=O)[C@H]1CCCCCC)OC(=O)[C@H](CC(C)C)NC=O` [Orlistat]: the “robust z score of cell number” value in the test with mIMCD3 [1] (siRNA: siRpgrip1l) was -31.6 ± 30; with mIMCD3 [1] (siRNA: siScr) it was -13.6 ± 12. Moreover, the “robust z score of cilia incidence” value with mIMCD3 [2] is -10.8 ± 11; in the test on mIMCD3 [3], -22 ± 17.
On the same counts, the results for `COc1ccc(Nc2ncnc3ccc(OC)cc23)cc1` [MPMQ hydrochloride] are -14.4 ± 7.8, -10.1 ± 1.4, -7.7 ± 7.4 and -16.6 ± 10.
With `CN1CCN(C2=Cc3ccccc3Oc3ccc(Cl)cc32)CC1`, the “robust z score of cell number” value in the test with mIMCD3 [1] (siRNA: siRpgrip1l) is -25.7 ± 3.3; in the test on mIMCD3 [1] (siRNA: siScr), -24.6 ± 3.5. The results for the “robust z score of cilia incidence” value with mIMCD3 [2] and with mIMCD3 [3] were -33.9 ± 11 and -32.83 ± 0.14, respectively.
For `CC(C)NCC(O)c1ccc(O)c(O)c1` (configuration not stated) [Isoproterenol hydrochloride] the same measures were -10.4 ± 8.7, -10.2 ± 4.6, -15.7 ± 17 and -22.8 ± 6.4.
On the same counts, the results for `CN(CCCN1c2ccccc2CCc2ccccc21)CC(=O)c1ccc(Cl)cc1` [Lofepramine] are -17.3 ± 8.8, -106 ± 92, -30.3 ± 6.9 and -35.7 ± 1.2.
On the same counts, the results for `COC1CCC(C(=O)c2ccc3nc4c(cc3c2)CCCO4)CC1` (configuration not stated) are -9.71 ± 5.2, -3.22 ± 0.3, -3.62 ± 3.6 and -17.2 ± 12.
On to `CC(=O)O[C@H]1C(=O)[C@@]2(C)[C@H]([C@H](OC(=O)c3ccccc3)[C@]3(O)C[C@H](OC(=O)[C@H](O)[C@@H](NC(=O)c4ccccc4)c4ccccc4)C(C)=C1C3(C)C)[C@]1(OC(C)=O)CO[C@@H]1C[C@@H]2O` [Taxol], for which the results for the “robust z score of cell number” value in the test on mIMCD3 [1] (siRNA: siRpgrip1l) and with mIMCD3 [1] (siRNA: siScr) were -47.8 ± 39 and -18.1 ± 3.8, respectively. In addition, the “robust z score of cilia incidence” value in the test with mIMCD3 [2] was -21.5 ± 0.61; in the test on mIMCD3 [3], -37.4 ± 7.4.
`Cc1cccc(C)c1OCC(C)N` (configuration not stated) [Mexiletine hydrochloride]: the figures for the “robust z score of cell number” value in the test on mIMCD3 [1] (siRNA: siRpgrip1l) and in the test on mIMCD3 [1] (siRNA: siScr) were -3.12 ± 3.2 and -23.1 ± 25, respectively. The “robust z score of cilia incidence” value with mIMCD3 [2] is -3.18 ± 5.8; in the test on mIMCD3 [3], -12.4 ± 4.8.
On the same counts, the results for `CN1CCN2c3ccccc3Cc3ccccc3C2C1` (configuration not stated) [Mianserin hydrochloride] are -5.61 ± 2.5, -4.83 ± 3.3, -0.737 ± 2.3 and -6.81 ± 3.2.
For the molecule `OC[C@H]1O[C@@H](n2cnc3c(N[C@H]4CCC[C@@H]4O)ncnc32)[C@H](O)[C@@H]1O`, the “robust z score of cell number” value in the test on mIMCD3 [1] (siRNA: siRpgrip1l) amounted to 2.65 ± 3.6; with mIMCD3 [1] (siRNA: siScr), 1.66 ± 2.7. Also, the “robust z score of cilia incidence” value in the test with mIMCD3 [2] was -0.987 ± 0.33; with mIMCD3 [3], -20.3 ± 21.
